No constants are given. Whether binding was seen depends on the method and setting. Some entries that bind do so weakly or less than the wild type.
Target: T1, Gal3 Peptide 2 (human)
T1 sequence (peptide): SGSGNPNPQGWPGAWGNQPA
Test: peptide ELISA: Gal3 peptide coated on the plate, antibody (hIgG4 S228P) at 5 µg/mL, anti-human IgG-HRP, A450 (Example 18)

binding: binds
B1: F849C.8H3 (antibody, human IgG4 S228P, kappa, V domains shown)
VH: QVTLKESGPGILQPSQTLSLTCSFSGFSLSTFGMGVGWIRQPSGKGLEWLAHIWWDDDKHYNPALKSRLTISKDTSKNQVFLRIANVDTADNATYYCARIDYGDYVGFAYWGQGTLVTVSA
VL: DIGMRQAAFSNPVTLGTSASISCRSSKSLLYSNGITYLYWFLQKPGQSPQLLIYQMSNLASGVPDRFSSSGSGTDFTLRISRVEADDVGVYYCAQNLELPWTFGGGTKLEIKR

Reference: US20230094463A1, “ANTIBODIES THAT DISRUPT THE INTERACTION OF GAL3 AND INSULIN RECEPTOR OR INTEGRINS AND METHODS OF USE THEREOF” (TrueBinding, Inc., priority 2019, published 2023)
